In patent US9408910B2 (priority 2011, dated 2016) one finds step yield and conjugation yield data, which are given here for three substances.

The nature of the series: general procedure: Fmoc solid-phase peptide synthesis; 2-chlorotritylchloride resin (TCP). Conditions: for step yield: late stage modification step.

As for “Ac-Lys(OAloc)-Gly-Asp(OAll)-Glu(OAll)-Val-Asp(OAll)-PABC”, the step yield was 20.5%.
For the setting “conjugation step”, “Ac-Lys(OAloc)-Gly-Asp(OAll)-Glu(OAll)-Val-Asp(OAll)-PABC-DOX” registered a conjugation yield of 74%.
“Ac-Lys(OAloc)-Gly-Asp(OAll)-Glu(OAll)-Val-Asp(OAll)-PABOH” registered a step yield of 84%.
